{
  "sequences": {"note": "Sequences of proteins named here, by UniProt entry; tags and fusion partners are left off. A change or cut given only in a name is not applied to a line headed by its entry.", "UniProt P51450": "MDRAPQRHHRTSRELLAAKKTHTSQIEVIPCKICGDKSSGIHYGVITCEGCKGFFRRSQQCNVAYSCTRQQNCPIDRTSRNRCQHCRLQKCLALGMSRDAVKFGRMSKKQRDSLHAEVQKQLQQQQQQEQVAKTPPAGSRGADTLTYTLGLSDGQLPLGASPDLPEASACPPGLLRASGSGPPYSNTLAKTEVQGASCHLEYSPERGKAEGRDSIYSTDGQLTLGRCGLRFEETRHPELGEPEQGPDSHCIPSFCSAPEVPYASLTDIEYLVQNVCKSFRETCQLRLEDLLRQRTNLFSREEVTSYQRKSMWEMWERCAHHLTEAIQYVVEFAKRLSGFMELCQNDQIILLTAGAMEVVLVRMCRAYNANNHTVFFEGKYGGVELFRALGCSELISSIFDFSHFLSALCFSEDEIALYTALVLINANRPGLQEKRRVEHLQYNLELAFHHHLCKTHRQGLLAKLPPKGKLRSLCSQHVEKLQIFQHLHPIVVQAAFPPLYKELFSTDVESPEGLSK"},
  "source": "PubChem BioAssay AID2551",
  "about": "(National Center for Advancing Translational Sciences (NCATS), 2010)",
  "note": "Screen size: about 310,000 compounds; about 17,000 (5.5%) were called active. Inconclusive results, whose numbers are uncertain, are shown with a selection of clear calls. The call rests on the fitted dose curve; in most records, active means well fitted inhibition curve with a large enough effect; inconclusive means small, poorly fitted or top-dose-only effect, or effect the other way; inactive means no such curve, though single readings can be large or run the other way. Potencies of inconclusive entries are doubtful fits and often do not repeat. On the % scale 0 is the no-effect control and ±100 the full control effect; potency means the concentration at half of the fitted maximal effect.",
  "data": [
    {"molecular_target": "Nuclear receptor ROR-gamma (Mus musculus) (UniProt P51450)", "experiment": "qHTS for inhibitors of ROR gamma transcriptional activity; further: nearly all actives have a fitted effect of over 60% in size", "conditions": "Drosophila S2 Gal4-RORgamma UAS-luciferase reporter, 20 h; activity change, negative = inhibition: at 53.6 µM (top of the series)", "in_short": "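In this cell-based reporter format, copper sulfate (700 uM final) drives Gal4–ROR gamma fusion expression from a metallothionein promoter in Drosophila Schneider cells; compounds preincubated 1 hr, reporter read after 20 hr at ambient temperature.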", "values": [
      {"smiles": "Cc1ccc(NS(=O)(=O)c2ccc(-c3cnc(C4CC4)o3)cc2)cc1", "Potency": "inconclusive: 35.5 µM [activator, single point]"},
      {"smiles": "O=C(N/N=C\\c1cccnc1)c1cc(-c2ccccc2)nc2c(Cl)cccc12", "Potency": "inconclusive: 17.8 µM [inhibitor, single point]"},
      {"smiles": "O=C(Nc1ccc(F)cc1)C1CC(=O)n2cnnc2N1", "note": "(stereo not drawn)", "activity change, negative = inhibition": "inactive: -12.1%"},
      {"smiles": "COc1ccc(CN2C(=O)COc3ccccc32)cc1", "activity change, negative = inhibition": "inactive: -10.2%"},
      {"smiles": "O=C(COC(=O)/C=C/c1cccs1)Nc1cccc(S(=O)(=O)N2CCCC2)c1", "Potency": "inconclusive: 11.2 µM [activator, partial curve]"},
      {"smiles": "COc1ccc(N(C(=O)c2snc(C(N)=O)c2N)C(C(=O)NCc2ccccc2)c2ccc(O)cc2)cc1", "note": "(stereo not drawn)", "activity change, negative = inhibition": "inactive: 16%"},
      {"smiles": "CN(c1cccc(NC(=O)c2cccc([N+](=O)[O-])c2)c1)S(C)(=O)=O", "Potency": "inconclusive: 1 µM [activator, full curve, poor fit]"},
      {"smiles": "CC(C)(C)n1cnc2cc(NC(=O)c3ccccc3)ccc21", "Potency": "inconclusive: 0.316 µM [activator, single point]"},
      {"smiles": "CC(C)C1COC(c2cccn2Cc2ccccc2Cl)=N1", "note": "(stereo not drawn)", "Potency": "inconclusive: 11.2 µM [inhibitor, partial curve]"},
      {"smiles": "CSc1cccc(NC(=S)NC(=O)c2cccnc2)c1", "Potency": "active: 10 µM"},
      {"smiles": "C(=N/Nc1nccs1)/c1cccnc1", "Potency": "inconclusive: 14.1 µM [inhibitor, single point]"},
      {"smiles": "Cc1cc(S(=O)(=O)NCCc2ccccc2)ccc1-n1cnnn1", "Potency": "inconclusive: 35.5 µM [activator, single point]"},
      {"smiles": "CCOc1ccc(-c2nnc3ccc(SCC(=O)Nc4nc5ccccc5s4)nn23)cc1", "Potency": "inconclusive: 15.8 µM [activator, single point]"},
      {"smiles": "CC(=O)c1cccc(NS(=O)(=O)c2ccc(C(=O)Nc3ccccc3)cc2)c1", "Potency": "inconclusive: 3.98 µM [activator, single point]"},
      {"smiles": "Cc1cccc(C(=O)NNC(=O)c2ccc(Cl)cc2)c1O", "Potency": "inconclusive: 7.08 µM [inhibitor, partial curve, poor fit]"},
      {"smiles": "Nc1ccccc1NC(=O)NC(=O)c1ccccc1", "activity change, negative = inhibition": "inactive: 3.43% [at 1.91 µM]"},
      {"smiles": "Cc1ccc(NC(=O)CCNC(=O)c2ccc([N+](=O)[O-])cc2)cc1S(=O)(=O)N(C)C", "activity change, negative = inhibition": "inactive: 41.8%"},
      {"smiles": "COc1ccccc1NC(=O)Nc1ccc(-n2ccc(C(F)(F)F)n2)cc1", "Potency": "inconclusive: 8.91 µM [activator, partial curve, poor fit]"},
      {"smiles": "CC(C)CC(CSc1ccc(Br)cc1)N1CCN(C)CCC1=O", "note": "(stereo not drawn)", "activity change, negative = inhibition": "inactive: 1.13%"},
      {"smiles": "CCOC(=O)Cc1csc(NC(=O)c2cc(OC)cc(OC)c2)n1", "Potency": "inconclusive: 35.5 µM [activator, single point]"},
      {"smiles": "Cc1ccc(NC(=O)/C=C/c2ccc3c(c2)OCO3)cc1S(=O)(=O)N1CCOCC1", "Potency": "inconclusive: 2.82 µM [activator, full curve]"},
      {"smiles": "COc1ccc2nc3oc(C(=O)NCc4cccs4)cc3cc2c1", "Potency": "inconclusive: 6.31 µM [activator, single point]"},
      {"smiles": "Cc1ccc(-c2nc(N)sc2CC(=O)OCC(=O)N2C(C)CCCC2C)cc1", "note": "(stereo not drawn)", "Potency": "inconclusive: 35.5 µM [activator, single point]"},
      {"smiles": "CC1=CN2C(=N)/C(=C/c3ccc(C)o3)C(=O)N=C2S1", "Potency": "active: 1.41 µM"},
      {"smiles": "O=C(Cn1cc(C(=O)c2ccco2)c2ccccc21)NCc1ccco1", "Potency": "inconclusive: 3.16 µM [activator, full curve, poor fit]"},
      {"smiles": "O=C(CNc1c(Br)cc(Br)cc1Br)NN=C1CCCCC1", "Potency": "inconclusive: 22.4 µM [inhibitor, partial curve, poor fit]"},
      {"smiles": "O=C(CSc1nnnn1-c1ccc(Cl)c(C(=O)O)c1)NC(c1ccccc1)c1ccccc1", "activity change, negative = inhibition": "inactive: -10.6%"},
      {"smiles": "C/C(=N\\NC(=O)Cc1ccc(Cl)cc1)c1ccc(F)cc1", "Potency": "inconclusive: 10 µM [activator, partial curve]"},
      {"smiles": "CCN(CCNC(=O)C1CCCN(Cc2nc(-c3ccc(OC)cc3)oc2C)C1)c1ccccc1", "note": "(stereo not drawn)", "Potency": "inconclusive: 15.8 µM [inhibitor, single point]"},
      {"smiles": "Clc1cccc(CSc2nc3ccncc3[nH]2)c1", "Potency": "inconclusive: 15.8 µM [activator, partial curve, poor fit]"},
      {"smiles": "COc1ccccc1OCc1cc(C(=O)N2CC3C[C@@H]4CC2C[C@H](C3)C4)no1", "Potency": "inconclusive: 14.1 µM [activator, partial curve]"},
      {"smiles": "COc1ccc(CN2C(=O)c3cccc4cccc(c34)C2=O)cc1", "activity change, negative = inhibition": "inactive: 22.2%"},
      {"smiles": "CCNc1ncc2nc(-c3ccc(OC)cc3)c(=O)n(CCOC)c2n1", "activity change, negative = inhibition": "inactive: -10.9%"},
      {"smiles": "O=C(CN1C(=O)c2ccccc2C1=O)Nc1sc2c(c1C(=O)NCC1CCCO1)CCC2", "note": "(stereo not drawn)", "activity change, negative = inhibition": "inactive: 13.6%"},
      {"smiles": "COC(=O)N/N=C/c1ccc(/C=N/NC(=O)OC)cc1", "activity change, negative = inhibition": "inactive: 9.4%"},
      {"smiles": "COc1ccc(C(=O)NC(=S)NNC(=O)c2ccco2)cc1", "Potency": "active: 11.2 µM"},
      {"smiles": "CCN(CC)c1ccc(/C=N/Nc2nn[nH]n2)cc1", "activity change, negative = inhibition": "inactive: -30.5%"},
      {"smiles": "CCC(CO)Nc1ccc(-c2n[nH]c(=O)c3ccccc23)cc1[N+](=O)[O-]", "note": "(stereo not drawn)", "Potency": "inconclusive: 12.6 µM [activator, partial curve]"},
      {"smiles": "CCN(CC)CCCNC(=O)C1CCC(CNS(=O)(=O)c2ccc(Cl)cc2)CC1", "note": "(stereo not drawn)", "activity change, negative = inhibition": "inactive: 16.3%"},
      {"smiles": "CCOC(=O)C1CCCN(S(=O)(=O)c2ccc3c4c2CC(=O)N4CC(C)S3)C1", "note": "(stereo not drawn)", "activity change, negative = inhibition": "inactive: 6.89%"},
      {"smiles": "CC(C)CCNC(=O)C1CC(c2ccc(C(F)(F)F)cc2)=NO1", "note": "(stereo not drawn)", "Potency": "inconclusive: 2.82 µM [activator, full curve]"},
      {"smiles": "CCOC(=O)C1CCCN(C(=O)c2cc(-c3ccc(C)cc3)on2)C1", "note": "(stereo not drawn)", "Potency": "inconclusive: 15.8 µM [inhibitor, single point]"},
      {"smiles": "COc1cc(C(=O)NCCc2ccc(F)cc2)c([N+](=O)[O-])cc1OC", "activity change, negative = inhibition": "inactive: -4.45%"},
      {"smiles": "COCCNc1oc(-c2ccc(C)cc2)nc1C#N", "Potency": "inconclusive: 22.4 µM [activator, single point]"},
      {"smiles": "CCOc1ccc(Cc2nc(N)nc(N)n2)cc1", "Potency": "inconclusive: 0.141 µM [inhibitor, full curve, poor fit]"},
      {"smiles": "O=C1/C(=C/c2ccncc2)SC(=S)N1Nc1ccccc1", "Potency": "inconclusive: 15.8 µM [inhibitor, single point]"},
      {"smiles": "CCOc1cc(/C=C2\\C(=N)N3N=C(C)SC3=NC2=O)ccc1OCCOc1cccc(OC)c1", "Potency": "inconclusive: 1.26 µM [activator, single point]"},
      {"smiles": "N/C(Cc1ccc(Cl)cc1Cl)=N\\OC(=O)c1ccccc1", "Potency": "active: 12.6 µM"},
      {"smiles": "CCCCOc1ccc(/C=N/NC(=S)Nc2cccc(C)c2C)cc1", "Potency": "active: 1.78 µM"},
      {"smiles": "OCC1O[C@H](Oc2ccc(O)cc2)C(O)C(O)C1O", "note": "(stereo partly drawn)", "activity change, negative = inhibition": "inactive: -0.0924%"},
      {"smiles": "COc1ccc(N2CCN(C(=O)c3ccccc3N(C)S(=O)(=O)c3ccc(C)cc3)CC2)cc1", "Potency": "inconclusive: 17.8 µM [activator, partial curve]"},
      {"smiles": "Cc1cc(O)c(C)c(O)c1/C=N/NC(=O)c1cccnc1", "Potency": "active: 7.94 µM"},
      {"smiles": "CCc1ccc(CN2CCC(C(=O)Nc3ccc(Oc4ccccc4)nc3)CC2)o1", "Potency": "inconclusive: 14.1 µM [inhibitor, single point]"},
      {"smiles": "O=[N+]([O-])c1ccc(NC(=S)NCCc2ccc(F)cc2)cc1", "Potency": "inconclusive: 28.2 µM [inhibitor, single point]"},
      {"smiles": "CC1=C(C#N)C(NC(=O)C2CC2)(C(F)(F)F)C(=O)N1", "note": "(stereo not drawn)", "Potency": "inconclusive: 3.55 µM [inhibitor, single point]"},
      {"smiles": "Cc1ccc(-c2cc(C(=O)O)c3sc(N4CCCCC4)nc3n2)cc1", "Potency": "inconclusive: 11.2 µM [activator, single point]"},
      {"smiles": "Cc1ccccc1NCC(=O)c1ccc(Br)cc1", "activity change, negative = inhibition": "inactive: 15.8%"},
      {"smiles": "CC(C)c1ccccc1-n1cc[nH]c1=S", "activity change, negative = inhibition": "inactive: 17.7%"},
      {"smiles": "O=C(c1ccco1)N1CCN(c2ncnc3c(-c4ccccc4)nsc23)CC1", "Potency": "inconclusive: 4.47 µM [activator, partial curve]"},
      {"smiles": "CC1=CC(C)(C)n2c(O)c(N=NC(N)=S)c3cc(C)cc1c32", "Potency": "active: 0.794 µM"},
      {"smiles": "O=C1CN(C(=O)c2ccco2)C(c2ccccc2)c2cc(Cl)ccc2N1", "note": "(stereo not drawn)", "Potency": "inconclusive: 22.4 µM [activator, single point]"},
      {"smiles": "CCC(CC)c1nn2c(N)c(/C=C3\\C(C)=Nc4ccccc43)c(=O)nc2s1", "activity change, negative = inhibition": "inactive: -3.88%"},
      {"smiles": "CC(=O)c1cc(CC(=O)N2CCc3c([nH]c4ccccc34)C2c2ccccn2)cs1", "note": "(stereo not drawn)", "Potency": "inconclusive: 11.2 µM [inhibitor, partial curve]"},
      {"smiles": "Cc1ccc(NC(=O)c2ccnc(C(C)(C)C)c2)cc1", "Potency": "inconclusive: 5.62 µM [activator, partial curve, poor fit]"},
      {"smiles": "O=C(CNC(=O)c1ccccc1)N/N=C/c1ccc([N+](=O)[O-])s1", "activity change, negative = inhibition": "inactive: 3.18%"},
      {"smiles": "CC(C(=O)N1CCCCC1)N(C)CC(=O)Nc1ccc(Cl)cc1", "note": "(stereo not drawn)", "activity change, negative = inhibition": "inactive: 23.5%"},
      {"smiles": "Cc1ccc(S(=O)(=O)N2CCC(=O)N(CCOCc3cccc(C)c3)CC2)cc1", "activity change, negative = inhibition": "inactive: 7.3%"},
      {"smiles": "COC(=O)CCNC(=O)c1ccc2nc(Cc3ccc(OC)c(OC)c3)oc2c1", "Potency": "inconclusive: 11.2 µM [activator, partial curve]"},
      {"smiles": "O=C(COc1ccccc1)NNC(=S)NC(=O)c1ccc(Cl)cc1Cl", "Potency": "inconclusive: 35.5 µM [inhibitor, single point]"},
      {"smiles": "COc1ccccc1NS(=O)(=O)c1cc(NC(=O)Nc2ccccc2)ccc1N1CCCCC1", "Potency": "inconclusive: 10 µM [activator, partial curve]"},
      {"smiles": "CCn1ccnc1CN(C)Cc1cn(-c2cc(C)ccc2C)nc1-c1ccccc1", "activity change, negative = inhibition": "inactive: 3.53%"},
      {"smiles": "Cc1n[nH]c(C)c1CCCCOc1ccccc1", "Potency": "active: 15.8 µM"},
      {"smiles": "O=[N+]([O-])c1ccc(C2=NN(CCO)C(=Nc3ccc(OC(F)(F)F)cc3)SC2)cc1", "Potency": "inconclusive: 35.5 µM [activator, single point]"}
    ]}
  ]
}
